Test results published in the supplement of paper PMC12819154, “High-throughput peptide-centric local stability assay extends protein–ligand identification to membrane proteins, tissues and bacteria” (Nature Structural & Molecular Biology, 2025).
Some of the results follow. Most entries show no effect beyond the scatter of the controls.

By UniProt entry, the sequences of proteins in these tests, tags left out. Where a name states a change or a piece, a line headed by the entry shows the natural chain unless it says otherwise.
UniProt P07146: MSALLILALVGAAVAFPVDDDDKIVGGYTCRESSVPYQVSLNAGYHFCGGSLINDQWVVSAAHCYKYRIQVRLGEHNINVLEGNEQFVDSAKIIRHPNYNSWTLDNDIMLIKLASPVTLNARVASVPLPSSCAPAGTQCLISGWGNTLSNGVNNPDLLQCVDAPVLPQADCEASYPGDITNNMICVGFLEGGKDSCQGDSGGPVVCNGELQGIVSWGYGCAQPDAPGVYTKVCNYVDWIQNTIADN
UniProt O88939: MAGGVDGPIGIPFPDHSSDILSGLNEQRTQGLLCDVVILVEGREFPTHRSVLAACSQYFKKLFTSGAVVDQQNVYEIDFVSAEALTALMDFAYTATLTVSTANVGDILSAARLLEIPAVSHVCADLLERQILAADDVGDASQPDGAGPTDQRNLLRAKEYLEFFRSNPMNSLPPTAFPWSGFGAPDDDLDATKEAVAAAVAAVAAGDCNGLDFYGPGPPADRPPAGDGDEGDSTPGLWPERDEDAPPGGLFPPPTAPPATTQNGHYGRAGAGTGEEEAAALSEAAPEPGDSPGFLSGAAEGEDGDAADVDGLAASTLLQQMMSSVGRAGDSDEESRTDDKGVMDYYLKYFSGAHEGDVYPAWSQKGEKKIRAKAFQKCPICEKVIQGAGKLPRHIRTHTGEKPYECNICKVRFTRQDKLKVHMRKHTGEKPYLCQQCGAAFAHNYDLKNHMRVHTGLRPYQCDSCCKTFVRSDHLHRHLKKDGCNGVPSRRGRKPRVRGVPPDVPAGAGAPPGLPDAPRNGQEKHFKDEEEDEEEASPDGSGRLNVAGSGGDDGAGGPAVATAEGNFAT
UniProt P00329: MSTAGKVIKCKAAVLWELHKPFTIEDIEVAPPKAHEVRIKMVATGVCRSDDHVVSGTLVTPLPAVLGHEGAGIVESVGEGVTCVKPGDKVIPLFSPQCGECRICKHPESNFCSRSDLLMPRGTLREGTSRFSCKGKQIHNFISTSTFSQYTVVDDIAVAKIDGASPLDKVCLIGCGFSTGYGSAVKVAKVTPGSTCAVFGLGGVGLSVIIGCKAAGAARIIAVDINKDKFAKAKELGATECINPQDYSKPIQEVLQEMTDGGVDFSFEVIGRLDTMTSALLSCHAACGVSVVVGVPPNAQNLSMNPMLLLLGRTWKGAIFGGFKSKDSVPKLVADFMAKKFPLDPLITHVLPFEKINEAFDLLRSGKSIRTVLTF
UniProt P15116: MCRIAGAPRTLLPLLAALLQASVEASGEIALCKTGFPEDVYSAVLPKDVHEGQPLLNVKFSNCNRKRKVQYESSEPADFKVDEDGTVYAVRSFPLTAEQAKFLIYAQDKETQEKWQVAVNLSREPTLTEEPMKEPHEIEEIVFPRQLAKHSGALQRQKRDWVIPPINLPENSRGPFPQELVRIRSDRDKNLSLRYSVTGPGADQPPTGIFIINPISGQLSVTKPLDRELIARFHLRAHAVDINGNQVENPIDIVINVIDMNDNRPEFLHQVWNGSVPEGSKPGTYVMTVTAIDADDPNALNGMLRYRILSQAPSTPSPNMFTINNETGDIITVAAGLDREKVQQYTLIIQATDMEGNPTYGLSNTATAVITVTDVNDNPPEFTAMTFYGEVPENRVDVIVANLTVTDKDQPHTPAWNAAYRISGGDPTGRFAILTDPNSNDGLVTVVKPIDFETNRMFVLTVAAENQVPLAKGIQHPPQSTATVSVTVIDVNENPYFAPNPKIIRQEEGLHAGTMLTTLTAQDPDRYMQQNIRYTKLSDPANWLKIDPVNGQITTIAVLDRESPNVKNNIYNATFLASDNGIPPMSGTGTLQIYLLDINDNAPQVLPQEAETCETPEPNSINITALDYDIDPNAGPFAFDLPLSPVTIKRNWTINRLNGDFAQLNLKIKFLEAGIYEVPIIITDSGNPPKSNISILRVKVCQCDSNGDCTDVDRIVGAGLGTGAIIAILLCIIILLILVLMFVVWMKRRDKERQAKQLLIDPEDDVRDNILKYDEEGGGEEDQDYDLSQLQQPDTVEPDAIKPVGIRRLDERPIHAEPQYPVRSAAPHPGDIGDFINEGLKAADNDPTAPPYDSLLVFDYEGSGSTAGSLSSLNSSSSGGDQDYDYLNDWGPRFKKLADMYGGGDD
UniProt P07361: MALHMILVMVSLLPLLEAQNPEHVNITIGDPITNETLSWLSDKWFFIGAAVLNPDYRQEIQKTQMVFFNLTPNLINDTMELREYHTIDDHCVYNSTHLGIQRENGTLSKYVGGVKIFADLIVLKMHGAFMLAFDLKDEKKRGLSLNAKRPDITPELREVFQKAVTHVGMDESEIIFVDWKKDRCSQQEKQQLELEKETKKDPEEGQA
UniProt P04117: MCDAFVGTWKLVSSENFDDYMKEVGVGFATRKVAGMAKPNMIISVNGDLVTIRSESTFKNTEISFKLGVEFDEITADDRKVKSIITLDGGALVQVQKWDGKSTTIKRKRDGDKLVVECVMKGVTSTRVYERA
UniProt P13405: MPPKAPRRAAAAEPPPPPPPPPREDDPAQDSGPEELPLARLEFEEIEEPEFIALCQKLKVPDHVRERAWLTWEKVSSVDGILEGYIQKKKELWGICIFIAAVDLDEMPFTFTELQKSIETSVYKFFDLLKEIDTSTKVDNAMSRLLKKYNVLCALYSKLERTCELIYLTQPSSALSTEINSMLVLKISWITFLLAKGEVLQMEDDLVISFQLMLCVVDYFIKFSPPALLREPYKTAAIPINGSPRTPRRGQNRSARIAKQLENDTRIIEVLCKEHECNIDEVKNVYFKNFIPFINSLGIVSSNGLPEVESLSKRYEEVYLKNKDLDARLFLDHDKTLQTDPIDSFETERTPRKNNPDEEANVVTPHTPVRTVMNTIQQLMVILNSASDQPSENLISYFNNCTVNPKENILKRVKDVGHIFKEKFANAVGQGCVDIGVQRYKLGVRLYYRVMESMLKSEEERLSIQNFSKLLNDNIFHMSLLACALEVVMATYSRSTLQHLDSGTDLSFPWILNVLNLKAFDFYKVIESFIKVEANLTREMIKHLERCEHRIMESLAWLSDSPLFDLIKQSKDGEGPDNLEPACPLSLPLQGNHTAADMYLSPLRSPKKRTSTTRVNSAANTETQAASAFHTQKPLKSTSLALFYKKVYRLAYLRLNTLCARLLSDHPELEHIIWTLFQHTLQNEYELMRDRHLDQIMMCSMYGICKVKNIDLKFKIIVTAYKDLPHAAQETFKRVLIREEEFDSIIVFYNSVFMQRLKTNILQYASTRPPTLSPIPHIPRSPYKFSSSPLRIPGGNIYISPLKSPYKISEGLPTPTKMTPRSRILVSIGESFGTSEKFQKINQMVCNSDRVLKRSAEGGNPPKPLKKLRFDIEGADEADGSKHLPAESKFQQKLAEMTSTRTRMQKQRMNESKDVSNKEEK
UniProt P11087, whole entry: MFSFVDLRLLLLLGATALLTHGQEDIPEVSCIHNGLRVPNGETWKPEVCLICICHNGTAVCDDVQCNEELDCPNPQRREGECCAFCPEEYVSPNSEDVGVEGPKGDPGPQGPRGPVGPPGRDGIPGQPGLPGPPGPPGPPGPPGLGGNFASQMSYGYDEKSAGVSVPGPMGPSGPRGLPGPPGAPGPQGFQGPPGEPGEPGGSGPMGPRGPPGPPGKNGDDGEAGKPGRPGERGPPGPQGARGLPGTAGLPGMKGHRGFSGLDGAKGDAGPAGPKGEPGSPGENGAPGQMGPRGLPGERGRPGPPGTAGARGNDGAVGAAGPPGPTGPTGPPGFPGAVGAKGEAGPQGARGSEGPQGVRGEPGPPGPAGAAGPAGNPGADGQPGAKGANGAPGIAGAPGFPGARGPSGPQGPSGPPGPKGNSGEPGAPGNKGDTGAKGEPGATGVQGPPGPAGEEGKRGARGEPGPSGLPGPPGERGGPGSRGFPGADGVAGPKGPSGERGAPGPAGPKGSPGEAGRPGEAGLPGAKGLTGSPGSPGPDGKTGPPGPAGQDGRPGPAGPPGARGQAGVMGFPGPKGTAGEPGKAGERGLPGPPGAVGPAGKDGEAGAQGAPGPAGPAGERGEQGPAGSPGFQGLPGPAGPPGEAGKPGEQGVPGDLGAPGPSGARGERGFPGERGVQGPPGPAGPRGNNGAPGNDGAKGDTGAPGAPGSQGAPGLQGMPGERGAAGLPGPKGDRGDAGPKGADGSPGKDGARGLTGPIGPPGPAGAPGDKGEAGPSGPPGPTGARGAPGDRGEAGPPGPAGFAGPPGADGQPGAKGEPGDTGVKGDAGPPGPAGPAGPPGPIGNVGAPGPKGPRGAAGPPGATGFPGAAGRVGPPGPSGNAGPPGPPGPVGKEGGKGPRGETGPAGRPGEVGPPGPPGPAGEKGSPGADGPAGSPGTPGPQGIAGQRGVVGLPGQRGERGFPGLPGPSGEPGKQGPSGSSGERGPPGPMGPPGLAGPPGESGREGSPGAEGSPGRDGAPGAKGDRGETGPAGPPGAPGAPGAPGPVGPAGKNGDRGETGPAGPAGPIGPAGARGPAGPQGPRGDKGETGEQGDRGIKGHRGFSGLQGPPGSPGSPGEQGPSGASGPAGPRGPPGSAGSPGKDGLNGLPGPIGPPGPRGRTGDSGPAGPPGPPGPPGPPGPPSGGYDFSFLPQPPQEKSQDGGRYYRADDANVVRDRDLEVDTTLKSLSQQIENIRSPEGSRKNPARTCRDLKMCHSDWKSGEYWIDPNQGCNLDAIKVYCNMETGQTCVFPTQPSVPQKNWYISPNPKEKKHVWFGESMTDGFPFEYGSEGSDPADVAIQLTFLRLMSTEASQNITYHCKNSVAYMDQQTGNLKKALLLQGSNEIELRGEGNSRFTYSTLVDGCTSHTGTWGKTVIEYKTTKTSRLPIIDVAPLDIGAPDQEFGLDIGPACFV
UniProt O89110: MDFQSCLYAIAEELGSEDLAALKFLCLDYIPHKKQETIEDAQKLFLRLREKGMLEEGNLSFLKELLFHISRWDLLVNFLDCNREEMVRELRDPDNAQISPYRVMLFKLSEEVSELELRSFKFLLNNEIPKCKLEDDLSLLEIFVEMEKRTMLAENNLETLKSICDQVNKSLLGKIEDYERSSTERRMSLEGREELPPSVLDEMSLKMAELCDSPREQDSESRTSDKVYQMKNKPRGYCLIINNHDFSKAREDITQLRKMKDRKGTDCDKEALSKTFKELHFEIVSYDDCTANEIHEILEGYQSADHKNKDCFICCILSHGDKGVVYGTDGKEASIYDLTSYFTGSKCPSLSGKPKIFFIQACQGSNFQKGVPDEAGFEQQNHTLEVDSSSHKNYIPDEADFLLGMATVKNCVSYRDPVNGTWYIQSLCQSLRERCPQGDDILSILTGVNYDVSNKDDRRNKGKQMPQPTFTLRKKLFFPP
UniProt P07214: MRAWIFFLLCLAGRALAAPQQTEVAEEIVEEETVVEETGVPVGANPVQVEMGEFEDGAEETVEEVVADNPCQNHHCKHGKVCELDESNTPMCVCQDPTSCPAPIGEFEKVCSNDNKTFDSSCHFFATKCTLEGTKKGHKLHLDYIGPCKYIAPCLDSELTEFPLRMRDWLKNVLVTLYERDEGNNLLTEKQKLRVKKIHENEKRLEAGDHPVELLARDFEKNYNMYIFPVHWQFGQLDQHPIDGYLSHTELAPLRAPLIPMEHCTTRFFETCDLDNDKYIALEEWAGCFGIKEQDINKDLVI
UniProt P08030: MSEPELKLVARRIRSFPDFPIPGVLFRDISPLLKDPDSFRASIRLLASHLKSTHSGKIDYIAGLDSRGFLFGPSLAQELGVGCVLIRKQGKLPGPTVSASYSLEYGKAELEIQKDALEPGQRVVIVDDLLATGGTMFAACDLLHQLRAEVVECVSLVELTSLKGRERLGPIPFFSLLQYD
UniProt P11152: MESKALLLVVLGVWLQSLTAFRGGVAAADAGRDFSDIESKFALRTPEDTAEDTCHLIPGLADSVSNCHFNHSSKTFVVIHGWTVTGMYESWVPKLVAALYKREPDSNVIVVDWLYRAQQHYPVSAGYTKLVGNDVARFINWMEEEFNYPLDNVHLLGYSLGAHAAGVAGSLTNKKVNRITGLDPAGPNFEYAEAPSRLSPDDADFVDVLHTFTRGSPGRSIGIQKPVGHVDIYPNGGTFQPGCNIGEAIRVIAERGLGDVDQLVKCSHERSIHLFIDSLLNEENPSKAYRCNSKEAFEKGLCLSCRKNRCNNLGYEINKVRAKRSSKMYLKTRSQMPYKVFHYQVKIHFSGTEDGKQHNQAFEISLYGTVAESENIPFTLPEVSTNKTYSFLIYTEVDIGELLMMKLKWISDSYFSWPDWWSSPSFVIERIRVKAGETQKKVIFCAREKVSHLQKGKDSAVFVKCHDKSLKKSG
UniProt P12400: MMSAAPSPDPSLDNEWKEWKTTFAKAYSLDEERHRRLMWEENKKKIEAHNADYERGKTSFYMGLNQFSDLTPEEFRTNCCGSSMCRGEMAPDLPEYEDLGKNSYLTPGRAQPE
UniProt P15864, whole entry: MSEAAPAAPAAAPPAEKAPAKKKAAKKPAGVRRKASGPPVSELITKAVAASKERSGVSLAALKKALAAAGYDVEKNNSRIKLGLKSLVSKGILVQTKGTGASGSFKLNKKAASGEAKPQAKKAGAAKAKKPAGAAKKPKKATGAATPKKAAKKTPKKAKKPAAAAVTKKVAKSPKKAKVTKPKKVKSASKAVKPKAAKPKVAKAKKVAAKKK

The targets below were run with CN[C@@H]1C[C@H]2O[C@@](C)([C@@H]1OC)n1c3ccccc3c3c4c(c5c6ccccc6n2c5c31)C(=O)NC4 [staurosporine] (assay: log2 fold change of tryptic peptide abundance, ligand vs vehicle (limited proteolysis) (log2 ratio); higher = more trypsin-susceptible (destabilized)). Settings: ligand concentration: 20 uM; sample: mouse liver crude lysate; replicate design: treated separately.

Target	log2 fold change
UniProt O88986 (peptide sequence: IAHFHQR, peptide start residue: 116)	-0.214
UniProt P14483 (peptide sequence: YDSDVGEHR, peptide start residue: 67)	-0.295
UniProt P01898 (peptide sequence: YFETSVSRPGLGEPR, peptide start residue: 31)	-0.0965
UniProt P0C7T6 (peptide sequence: GAIIQLATGELK, peptide start residue: 470)	0.362
UniProt P07742 (peptide sequence: VMFDKITSR, peptide start residue: 13)	0.329
UniProt P07146 (peptide sequence: IVGGYTCR, peptide start residue: 24)	-0.168
UniProt P05480 (peptide sequence: GSLLDFLK, peptide start residue: 325)	0.273
UniProt O88939 (peptide sequence: EYLEFFR, peptide start residue: 159)	0.227
UniProt P00329 (peptide sequence: SIRTVLTF, peptide start residue: 368)	0.404
UniProt P06801 (peptide sequence: NLEAIVQK, peptide start residue: 363)	-0.228
UniProt P01670 (peptide sequence: ELPRTFGGGTK, peptide start residue: 97)	0.493
UniProt P15116 (peptide sequence: GPFPQELVR, peptide start residue: 174)	0.359
UniProt P07361 (peptide sequence: ETKKDPEEGQA, peptide start residue: 197)	-0.359
UniProt P04117 (peptide sequence: LGVEFDEITADDRK, peptide start residue: 67)	-0.882
UniProt P11835 (peptide sequence: SNEFDYPSVGQLAHK, peptide start residue: 297)	-0.164
UniProt P13405 (peptide sequence: FDIEGADEADGSK, peptide start residue: 870)	0.39
UniProt P11087 (peptide sequence: SLSQQIENIR, peptide start residue: 1226)	0.521
UniProt P11688 (peptide sequence: AQLKPPATSDA, peptide start residue: 1043)	-0.132
UniProt O89110 (peptide sequence: GTDCDKEALSK, peptide start residue: 264)	-0.265
UniProt P07214 (peptide sequence: LEAGDHPVELLAR, peptide start residue: 205)	-0.14
UniProt P08030 (peptide sequence: DALEPGQR, peptide start residue: 115)	0.0899
UniProt P11152 (peptide sequence: DFSDIESK, peptide start residue: 33)	-0.296
UniProt P12400 (peptide sequence: KIEAHNADYER, peptide start residue: 45)	0.0139
UniProt P14069 (peptide sequence: LQDAEIAR, peptide start residue: 48)	-0.151
UniProt P15864 (peptide sequence: SEAAPAAPAAAPPAEKAPAKK, peptide start residue: 2)	-0.268
UniProt P08553 (peptide sequence: VHYLEQQNK, peptide start residue: 117)	-0.194

Rewritten field by field: entries from further up
UniProt P00329 (peptide sequence: SIRTVLTF, peptide start residue: 368)
  log2 fold change: 0.404
UniProt P06801 (peptide sequence: NLEAIVQK, peptide start residue: 363)
  log2 fold change: -0.228
